PubChem BioAssay AID504791 – Drosophila RNAi Screening Center | 2011

Aim: 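Genes of the fly required for silencing by miRNA, siRNA or endo-siRNA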 (primary screen)
System: Drosophila S2-derived reporter cells
Reagent: long dsRNA against Drosophila genes, about 150-250 ng dsRNA per well (siRNA assay); about 80-120 ng (miRNA assay)
Time to read-out: about 5 days (siRNA assay); about 4 days (miRNA assay)
Treatment: copper sulfate induction of reporters: 25 µM (siRNA assay); 200 mM stated (miRNA assay), 1-2 days before reading
Measured: 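Dual luciferase assay: Renilla to firefly signal ratio in each well, scaled to the mean ratio of its plate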
Scale: siRNA reporter hit score: higher = 3 marks a strong hit with raised ratio; -3 a strong hit with lowered ratio
Hit rule: 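a well was a first-pass pick when its plate-scaled ratio rose above 1.5 (siRNA assay) or 1.6 (miRNA assay), or dropped below 0.6; a gene counted only if two separate dsRNAs agreed on retest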
In all, the deposit lists about 23,000 reagents; below is an unselected part of those with a known target gene and a result. In the full data, 199 (0.86%) were called active. 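Plate-scaled ratios behind the calls are not deposited; printed light signals are raw; many rows marked increased or decreased are still called inactive.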 A plus sign joins genes that one reagent is predicted to hit.

gene	dsRNA	siRNA reporter hit score	stable siRNA reporter change	miRNA reporter change	stable assay Renilla, run 1 (luminescence)	stable assay firefly, run 1 (luminescence)	Call
CG8851	DRSC00718				7743	3.70e5	inactive
CG31495	DRSC16762				6848	2.98e5	inactive
ArgRS-m (Arginyl-tRNA synthetase, mitochondrial)	DRSC14186				5999	5.03e5	inactive
Pu (Punch)	DRSC04645				3.92e5	2.96e5	inactive
mod(mdg4) (modifier of mdg4)	DRSC13474				3323	2.91e5	inactive
mod(mdg4) (modifier of mdg4)	DRSC13475				3220	3.03e5	inactive
mod(mdg4) (modifier of mdg4)	DRSC13478				4192	3.25e5	inactive
mod(mdg4) (modifier of mdg4)	DRSC13479				3611	3.59e5	inactive
mod(mdg4) (modifier of mdg4)	DRSC15042				7799	4.67e5	inactive
mod(mdg4) (modifier of mdg4)	DRSC17000				11683	4.74e5	inactive
CG13321	DRSC06358		reporter ratio lowered past the hit cutoff		6063	5.73e5	inactive
Mbs (Myosin binding subunit)	DRSC09414				5306	3.72e5	inactive
Mbs (Myosin binding subunit)	DRSC10525				6691	3.09e5	inactive
Mbs (Myosin binding subunit)	DRSC10553				6679	4.41e5	inactive
CG11560	DRSC09843				6631	3.33e5	inactive
CG5787	DRSC02895				30953	3.30e5	inactive
cad (caudal)	DRSC03502				6335	8.73e5	inactive
cad (caudal)	DRSC23193				4167	3.56e5	inactive
CG13908 (retired record)	DRSC08378				5950	4.36e5	inactive
Gr33a (Gustatory receptor 33a)	DRSC02589				6327	2.79e5	inactive
CG6688	DRSC16094				7369	4.18e5	inactive
FANCI (Fanconi anemia complementation group I)	DRSC06416				6400	3.98e5	inactive
Nhe3 (Na[+]/H[+] hydrogen exchanger 3)	DRSC03380				6998	3.80e5	inactive
CG3355	DRSC00598				7268	3.40e5	inactive
CG12375	DRSC02163				13448	2.02e5	inactive
CG15127	DRSC05802				5492	3.53e5	inactive
CG15127	DRSC06549				5424	2.42e5	inactive
CG5446	DRSC02862				5895	4.15e5	inactive
Unc-115b + p24-2	DRSC16492			reporter ratio raised past the hit cutoff	7519	4.38e5	inactive
CG4480	DRSC02750				8169	5.73e5	inactive
CG30340	DRSC05167			reporter ratio raised past the hit cutoff	4878	4.23e5	inactive
CG42741	DRSC04593				5214	2.94e5	inactive
CG42741	DRSC22045				10363	7.17e5	inactive
CG9040	DRSC11053				6735	4.98e5	inactive
CG13711	DRSC08320				6635	4.49e5	inactive
CG12123	DRSC17818				8764	4.27e5	inactive
CG11597	DRSC09847				8586	5.02e5	inactive
mei-P26 (meiotic P26)	DRSC17735		reporter ratio raised past the hit cutoff		6563	2.40e5	inactive
mei-P26 (meiotic P26)	DRSC23049				4935	2.76e5	inactive
CG33630	DRSC14546				7183	4.15e5	inactive
Sec61alpha (Sec61 alpha subunit)	DRSC03256				9421	8.73e5	inactive
superdeath (Suppressor of ER stress-induced death)	DRSC14868				3564	3.81e5	inactive
Cyp9h1 (Cytochrome P450 9h1)	DRSC07391				4520	2.85e5	inactive
Nmdar1 (NMDA receptor 1)	DRSC12071				5539	3.96e5	inactive
Nmdar1 (NMDA receptor 1)	DRSC12356				7171	4.24e5	inactive
CG3163	DRSC04341				10671	1.87e6	inactive
Apc (APC-like)	DRSC14114				6364	4.47e5	inactive
alrm (astrocytic leucine-rich repeat molecule)	DRSC14436				7456	3.91e5	inactive
wb (wing blister)	DRSC01375			reporter ratio raised past the hit cutoff	4764	2.94e5	inactive
wb (wing blister)	DRSC03634				6614	3.21e5	inactive
wb (wing blister)	DRSC23003				3535	2.66e5	inactive
Obp57e (Odorant-binding protein 57e)	DRSC05891				8874	6.18e5	inactive
CG17211	DRSC02587				6703	3.91e5	inactive
MED25 (Mediator complex subunit 25)	DRSC14483	3			4759	1.36e5	inactive
MED25 (Mediator complex subunit 25)	DRSC22981			reporter ratio raised past the hit cutoff	5063	3.76e5	active
CG13458	DRSC10005				7198	2.52e5	inactive
HisRS (Histidyl-tRNA synthetase)	DRSC19986				4919	4.50e5	inactive

Individual results from the entries so far:
Value for mod(mdg4) (modifier of mdg4) [DRSC13478] under “Call”: inactive
Value of cad (caudal) [DRSC03502] under “stable assay Renilla, run 1 (luminescence)”: 6335
For “stable assay firefly, run 1 (luminescence)”, CG17211 [DRSC02587] is entered as 3.91e5
Entry of mod(mdg4) (modifier of mdg4) [DRSC15042] under “stable assay firefly, run 1 (luminescence)”: 4.67e5
Entry for CG5787 [DRSC02895] in “Call”: inactive
